# PubChem BioAssay AID1259254, NCATS, 2017
# Screen: 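Finding genes that stop cells copying their DNA twice in one cycle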 (primary screen)
# System: human HCT116 colorectal cancer cells
# Reagents: single siRNA against human genes
# Timing: 3 days
# Detection: 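Nuclei stained with Hoechst and imaged; cell-cycle phase assigned by DNA content; G2 share scaled per plate, non-targeting siRNA 0%, GMNN siRNA 100%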
# Scale: G2 robust z-score: higher = more G2 cells, more excess DNA replication
# Hit rule: 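Active siRNAs have a G2 robust z of 5 or more median absolute deviations over the median, which in these data means about 38% or higher of GMNN control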
# The deposit covers about 59,000 reagents; this is a part drawn at random. Of all reagents, about 1,550 (2.6%) were called active. 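G2 share is only a proxy for re-replication; each gene was hit by three separate siRNAs, and active genes were retested.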 Not all columns of the deposit are shown. Not stated in the record: the amount of reagent.
G2 robust z-score,Call,Target gene,PubChem SID
-0.234,inactive,ZNF521 (zinc finger protein 521),SID160737266
-1.05,inactive,ZNF521 (zinc finger protein 521),SID160737267
0.0203,inactive,ZNF521 (zinc finger protein 521),SID160737268
-0.147,inactive,KDELR2 (KDEL endoplasmic reticulum protein retention receptor 2),SID160729742
1.2,inactive,KDELR2 (KDEL endoplasmic reticulum protein retention receptor 2),SID160729743
-1.12,inactive,KDELR2 (KDEL endoplasmic reticulum protein retention receptor 2),SID160729744
0.0651,inactive,"YES1 (YES proto-oncogene 1, Src family tyrosine kinase)",SID160718926
1.51,inactive,"YES1 (YES proto-oncogene 1, Src family tyrosine kinase)",SID160718927
0.418,inactive,"YES1 (YES proto-oncogene 1, Src family tyrosine kinase)",SID160718928
0.374,inactive,ING5 (inhibitor of growth family member 5),SID160752068
-0.326,inactive,ING5 (inhibitor of growth family member 5),SID160752069
-0.503,inactive,ING5 (inhibitor of growth family member 5),SID160752071
2.93,inactive,ANXA13 (annexin A13),SID160717969
0.00235,inactive,ANXA13 (annexin A13),SID160717989
1.1,inactive,ANXA13 (annexin A13),SID160731066
-0.23,inactive,ZNF697 (zinc finger protein 697),SID160753844
-0.188,inactive,ZNF697 (zinc finger protein 697),SID160753845
1.86,inactive,ZNF697 (zinc finger protein 697),SID160753846
-1.13,inactive,ARLN (allregulin),SID160767174
2.17,inactive,ARLN (allregulin),SID160767175
-0.819,inactive,ARLN (allregulin),SID160767176
0.0706,inactive,FBXL18 (F-box and leucine rich repeat protein 18),SID160749991
2.05,inactive,FBXL18 (F-box and leucine rich repeat protein 18),SID160749992
0.349,inactive,FBXL18 (F-box and leucine rich repeat protein 18),SID160749993
-0.764,inactive,ABTB1 (ankyrin repeat and BTB domain containing 1),SID160750391
-0.368,inactive,ABTB1 (ankyrin repeat and BTB domain containing 1),SID160750392
-0.853,inactive,ABTB1 (ankyrin repeat and BTB domain containing 1),SID160750393
-0.555,inactive,SLC75A1,SID160727313
2.34,inactive,SLC75A1,SID160727321
0.112,inactive,SLC75A1,SID160727325
1.25,inactive,KRT18P55 (keratin 18 pseudogene 55),SID160763154
-0.218,inactive,KRT18P55 (keratin 18 pseudogene 55),SID160763155
0.157,inactive,KRT18P55 (keratin 18 pseudogene 55),SID160763156
0.425,inactive,LINC01220 (long independently transcribed non-coding RNA 1220),SID160774043
0.0383,inactive,LINC01220 (long independently transcribed non-coding RNA 1220),SID160774044
-0.344,inactive,LINC01220 (long independently transcribed non-coding RNA 1220),SID160774045
1.68,inactive,ROPN1B (rhophilin associated tail protein 1B),SID160759190
-1.1,inactive,ROPN1B (rhophilin associated tail protein 1B),SID160759191
-0.277,inactive,ROPN1B (rhophilin associated tail protein 1B),SID160759192
1.76,inactive,GPN2 (GPN-loop GTPase 2),SID160724438
5.05,active,GPN2 (GPN-loop GTPase 2),SID160742047
-0.177,inactive,GPN2 (GPN-loop GTPase 2),SID160742048
5.69,active,GDF7 (growth differentiation factor 7),SID160759102
2.63,inactive,GDF7 (growth differentiation factor 7),SID160759103
-0.611,inactive,GDF7 (growth differentiation factor 7),SID160759104
-1.16,inactive,SOBP (sine oculis binding protein homolog),SID160742901
0.0791,inactive,SOBP (sine oculis binding protein homolog),SID160742902
1.32,inactive,SOBP (sine oculis binding protein homolog),SID160742903
2.19,inactive,"LRIT2 (leucine rich repeat, Ig-like and transmembrane domains 2)",SID160764484
2.36,inactive,"LRIT2 (leucine rich repeat, Ig-like and transmembrane domains 2)",SID160764485
0.927,inactive,"LRIT2 (leucine rich repeat, Ig-like and transmembrane domains 2)",SID160764486
1.43,inactive,TOPAZ1 (testis and ovary specific TOPAZ 1),SID160765416
4.9,inactive,TOPAZ1 (testis and ovary specific TOPAZ 1),SID160765417
0.473,inactive,TOPAZ1 (testis and ovary specific TOPAZ 1),SID160765418
-0.635,inactive,C6orf15 (chromosome 6 open reading frame 15),SID160724377
-0.149,inactive,C6orf15 (chromosome 6 open reading frame 15),SID160733030
-1.01,inactive,C6orf15 (chromosome 6 open reading frame 15),SID160739095
-0.0187,inactive,SLFN5 (schlafen family member 5),SID160759913
-0.732,inactive,SLFN5 (schlafen family member 5),SID160759914
0.294,inactive,SLFN5 (schlafen family member 5),SID160759916
0.879,inactive,TIFAB (TIFA inhibitor),SID160768288
-0.792,inactive,TIFAB (TIFA inhibitor),SID160768289
0.367,inactive,TIFAB (TIFA inhibitor),SID160768290
-0.355,inactive,MYO3A (myosin IIIA),SID160741492
7.24,active,MYO3A (myosin IIIA),SID160741493
0.739,inactive,MYO3A (myosin IIIA),SID160741494
-0.649,inactive,SMIM14 (small integral membrane protein 14),SID160761030
0.243,inactive,SMIM14 (small integral membrane protein 14),SID160761031
0.708,inactive,SMIM14 (small integral membrane protein 14),SID160761032

12 entries from above, set out differently.
G2 robust z-score	Call	Target gene	PubChem SID
-0.764	inactive	ABTB1 (ankyrin repeat and BTB domain containing 1)	SID160750391
-0.368	inactive	ABTB1 (ankyrin repeat and BTB domain containing 1)	SID160750392
-0.853	inactive	ABTB1 (ankyrin repeat and BTB domain containing 1)	SID160750393
-0.555	inactive	SLC75A1	SID160727313
2.34	inactive	SLC75A1	SID160727321
0.112	inactive	SLC75A1	SID160727325
1.25	inactive	KRT18P55 (keratin 18 pseudogene 55)	SID160763154
-0.218	inactive	KRT18P55 (keratin 18 pseudogene 55)	SID160763155
0.157	inactive	KRT18P55 (keratin 18 pseudogene 55)	SID160763156
0.425	inactive	LINC01220 (long independently transcribed non-coding RNA 1220)	SID160774043
0.0383	inactive	LINC01220 (long independently transcribed non-coding RNA 1220)	SID160774044
-0.344	inactive	LINC01220 (long independently transcribed non-coding RNA 1220)	SID160774045
